From patent US20160289298A1
No constants are given. Whether binding was seen depends on the method and setting. Some entries that bind do so weakly or less than the wild type. Tags and fused reporters may be left off the sequences shown.

By UniProt entry, the sequences of proteins in these tests, tags left out. Residues count along the entry.
UniProt P22004, residues 382-513: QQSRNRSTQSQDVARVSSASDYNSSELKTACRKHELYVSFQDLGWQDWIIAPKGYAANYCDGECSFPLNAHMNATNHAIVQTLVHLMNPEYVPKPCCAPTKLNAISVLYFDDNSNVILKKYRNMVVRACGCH

Assays:
BMP10 [1] = target: T1, BMP10 (UniProt O95393); assay: SPR (Biacore), receptor-Fc captured by anti-Fc antibody, ligand injected
T1 sequence (looked up): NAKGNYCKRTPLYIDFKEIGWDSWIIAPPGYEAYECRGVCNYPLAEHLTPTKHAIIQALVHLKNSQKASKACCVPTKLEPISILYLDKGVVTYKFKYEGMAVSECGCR

activin B [2] = target: T2, activin B (UniProt P09529); assay: as above
T2 sequence (looked up): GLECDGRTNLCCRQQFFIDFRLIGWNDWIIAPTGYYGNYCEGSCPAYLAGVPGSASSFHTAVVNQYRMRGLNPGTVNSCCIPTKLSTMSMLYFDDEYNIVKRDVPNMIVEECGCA

GDF11 [3] = target: T3, GDF11 (UniProt O95390); assay: as above
T3 sequence (looked up): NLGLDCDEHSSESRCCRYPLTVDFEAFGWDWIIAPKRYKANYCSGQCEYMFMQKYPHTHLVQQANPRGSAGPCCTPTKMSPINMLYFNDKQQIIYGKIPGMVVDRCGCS

GDF8 [4] = target: T4, GDF8 (UniProt O14793); assay: as above
T4 sequence (looked up): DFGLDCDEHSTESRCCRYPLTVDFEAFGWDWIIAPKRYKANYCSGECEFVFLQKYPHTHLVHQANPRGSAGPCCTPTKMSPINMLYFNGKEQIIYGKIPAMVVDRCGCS

BMP10 [5] = target: T1, BMP10; assay: SPR (Biacore), legend of FIG. 6; the five ligands are named in paragraph 510
activin B [6] = target: T2, activin B; assay: as above
GDF11 [7] = target: T3, GDF11; assay: as above
GDF8 [8] = target: T4, GDF8; assay: as above
BMP6 [9] = target: BMP6 (UniProt P22004); assay: Biacore; receptor-Fc captured with anti-Fc antibody, ligand injected; ligands ranked by off-rate
BMP9 = target: T5, BMP9 (UniProt Q9UK05); assay: as above
T5 sequence (looked up): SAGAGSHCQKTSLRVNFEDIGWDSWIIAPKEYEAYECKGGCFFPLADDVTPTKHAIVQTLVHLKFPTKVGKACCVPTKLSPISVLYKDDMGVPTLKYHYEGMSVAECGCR

BMP6 [10] = target: BMP6 (UniProt P22004); assay: SPR (Biacore), receptor-Fc captured by anti-Fc antibody, ligand injected
GDF6 = target: T6, GDF6 (UniProt Q6KF10); assay: as above
T6 sequence (looked up): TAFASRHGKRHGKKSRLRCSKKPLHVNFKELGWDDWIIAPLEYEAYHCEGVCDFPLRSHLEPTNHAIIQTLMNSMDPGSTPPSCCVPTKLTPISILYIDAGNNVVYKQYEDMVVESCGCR

Measured: binding

B1: ActRIIB-Fc homodimeric complex (Fc fusion, UniProt Q13705 20-134, looked up, not shown: a dimerising Fc or GST)
chain: GRGEAETRECIYYNANWELERTNQSGLERCEGEQDKRLHCYASWRNSSGTIELVKKGCWLDDFNCYDRQECVATEENPQVYFCCCEGNFCNERFTHLPEAGGPEVTYEPPPTAPT
not listed: BMP6 [10] | GDF6
binds: all other assays above

B2: BMPRII-Fc homodimeric complex (Fc fusion, UniProt Q13873 27-150, looked up, not shown: a dimerising Fc or GST)
chain: SQNQERLCAFKDPYQQDLGIGESRISHENGTILCSKGSTCYGLWEKSKGDINLVKQGCWSHIGDPQECHYEECVVTTTPPSIQNGTYRFCCCSTDLCNVNFTENFPPPDTTPLSPPHSFNRDET
binds: BMP6 [10] | GDF6
